# Measurements: PubChem BioAssay AID493014 (National Center for Advancing Translational Sciences (NCATS), 2011)
# Among all 340,000 compounds or so, about 170 (0.05%) were called active. Inconclusive means that the source gave no clear call. Such entries were picked first, then a sample of the others. Calls follow the shape of the dose curve; as a rule, active = well fitted inhibition curve with a large enough effect in the signal ratio, with a control signal flat (not every such curve was filed as active); inconclusive = small, poorly fitted or top-dose-only effect, or effect the other way, or a change in a side signal; inactive = flat fitted curve, though single readings scatter; the % refers to the signal ratio. Potencies of inconclusive entries are doubtful fits and often do not repeat.
# Assay: qHTS Assay to Find Inhibitors of Chronic Active B-Cell Receptor Signaling;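 as to activity change, negative = inhibition: plate controls were basal doxycycline-induced cells for no effect and cells given 10 µM MG132 for full effect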
# Settings: ABC-DLBCL IkBa-CBG/CBR reporter, luminescence ratio (green luciferase fused to IkBa over red control in TMD8 lymphoma cells), 4 h; activity change, negative = inhibition: at 46.1 µM (top of the series) unless noted
# Summary of the method: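 Cell line TMD8 (human ABC DLBCL), stably expressing tet-inducible CBG68-IkBa fusion and CBR; IMDM/0.5% FBS; cpd up to 46 uM; dox induction, 4 h, 37C/5% CO2; dual luminescence; green/red ratio; MG132 control.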
# Potency is read from the fitted curve at half-maximal effect.
Structure (SMILES),"activity change, negative = inhibition",Potency
Cc1cc(C(=O)COC(=O)c2cc(O)c3ccccc3c2O)c(C)n1CC1CCCO1 (stereo not given),inconclusive: -10.1%,–
COc1cc(/C=C/C(=O)N(C)CC(=O)Nc2ccccc2SC)cc(OC)c1OC,inconclusive: -6.8%,–
CN(C(=O)C1CCC(=O)N(CCc2ccc(Cl)cc2)C1)C1CCOCC1 (stereo not given),inactive: 1.12%,–
COc1ccc(-c2csc(N3CCN(S(=O)(=O)c4ccc5c(c4)NC(=O)CO5)CC3)n2)cc1,inactive: -2.42%,–
CCOC(=O)N1CCN(c2c(NCCCN(CC)Cc3ccccc3)c(=O)c2=O)CC1,inconclusive: 0.509%,–
Cc1nnsc1C(=O)NC1CCCc2c1cnn2-c1ccccc1F (stereo not given),inactive: 0.251%,–
N#CCC(=O)Nc1ccc(C(=O)OCC(=O)c2ccc3c(c2)OCCO3)cc1,–,"inconclusive: 35.5 µM [falling, single point]"
O=C(COc1ccccc1Cl)Nc1ccc2oc(=O)ccc2c1,inactive: 16.5%,–
Nc1nc(COC(=O)CCC(=O)c2ccccc2)nc(Nc2ccccc2)n1,inconclusive: -17.1%,–
COc1ccc(N2C(=O)NC(NC(=O)c3cccnc3)(C(F)(F)F)C2=O)cc1 (stereo not given),inconclusive: 10.7%,–
C=CCN1C(=O)S/C(=C/c2ccc(Sc3nc4ccccc4[nH]3)o2)C1=O,inactive: -0.318%,–
CCOC(=O)C1CCCN(C(=S)NC2CCCC2)C1 (stereo not given),inconclusive: 1.94%,–
CS(=O)(=O)N1CCN(c2ccc([N+](=O)[O-])c3cccnc23)CC1,inconclusive: -1.3%,–
Cn1cccc1Cc1nnc(SCC(=O)N2CCCCCC2)n1-c1ccc(F)cc1,–,"inconclusive: 1.84 µM [rising, full curve, poor fit]"
CC(=O)Nc1cccc(NC(=O)CCN2C(=O)c3ccccc3S2(=O)=O)c1,–,"inconclusive: 11.6 µM [falling, partial curve, poor fit]"
O=C(Nc1c(C(=O)Nc2ccc3c(c2)OCCO3)cnn1-c1ccccc1Cl)c1ccco1,inconclusive: -13.4%,–
CN1CCN(C(=O)c2ccccc2N(Cc2ccccc2)S(=O)(=O)c2ccccc2)CC1,inactive: -3.05%,–
CCn1ccnc1[C@@H]1C[C@H]2CN(c3ccccc3OC)C(=O)[C@]23CCCN13,inconclusive: 20.3%,–
O=C(C[C@H]1C[C@H](C(=O)N2CCOCC2)[C@@]2(CCC3CCCC3)c3[nH]c4ccc(Cl)cc4c3CCN2C1=O)NCCc1ccccn1,inconclusive: 0.431%,–
CNC[C@H]1Oc2c(NS(=O)(=O)c3ccccc3)cccc2C(=O)N([C@H](C)CO)C[C@@H]1C,inconclusive: 3.41%,–

# Individual results from the results shown.
# Under Potency, `N#CCC(=O)Nc1ccc(C(=O)OCC(=O)c2ccc3c(c2)OCCO3)cc1` has inconclusive: 35.5 µM [falling, single point]
# Under activity change, negative = inhibition, `CS(=O)(=O)N1CCN(c2ccc([N+](=O)[O-])c3cccnc23)CC1` has inconclusive: -1.3%

# Next entries

Structure (SMILES),"activity change, negative = inhibition",Potency
Cc1cccc(OCC(=O)NNC(=O)C2CCCCC2C(=O)O)c1 (stereo not given),inconclusive: 8.9%,–
COC(=O)C1CN(C(=O)C(C)Oc2ccc(C(C)C)cc2)c2ccccc2O1 (stereo not given),inconclusive: 0.937%,–
S=C(NCc1ccccc1)Nc1cccc2ccccc12,inactive: -11.5%,–
CN(C)CCN1C(=O)C(O)=C(C(=O)c2cc3ccccc3o2)C1c1ccc(N(C)C)cc1 (stereo not given),inactive: 0.539%,–
COc1ccc(CCNC(=O)CSc2nc(=O)[nH]c3c2CCC3)cc1OC,inactive: -0.431%,–
Cc1nc2scc(-c3cccs3)c2c(=O)[nH]1,inactive: -6.4%,–
O=C(NCc1cccnc1)c1ccc(CS(=O)(=O)c2ccc(Cl)cc2)o1,inactive: 6.05%,–
CCN1CCN(CC(=O)Nc2ccccc2)C(=O)C1=O,inconclusive: 1.84%,–
CC(=O)c1c(O)cc(C)n(-c2ccc(F)cc2)c1=O,inactive: -0.0551%,–
COC(=O)c1ccccc1NC(=O)CN1CCC(n2nnc3cc(C(F)(F)F)ccc32)CC1,inconclusive: 16.7%,–
COC(=O)Nc1ccc(C)c2nsnc12,inconclusive: 1.86%,–
Clc1cccc(Cl)c1CNC1CCCC1,–,"inconclusive: 0.326 µM [rising, full curve, poor fit]"
COc1ccc(N2CCN(CCNC(=O)c3ccc4c(c3)[nH]c(=S)n3c5ccccc5nc43)CC2)cc1,inconclusive: 15.8%,–
CCc1noc(C)c1C(=O)OCC(=O)Nc1cccc(C)c1,inconclusive: -0.776%,–
CCN(CC)C(=O)c1cccc(-c2ccc(OC)cc2)c1,inconclusive: 8.39%,–
C[C@H](NC(=O)C1CCN(S(=O)(=O)c2ccccc2)CC1)C(=O)NCc1ccc(Cl)cc1Cl,inconclusive: 0.435%,–
Clc1ccc(OCCCNCc2ccccc2)c2ccccc12,inactive: 4.74%,–
COc1ccc(S(=O)(=O)NCCc2nnc3ccc(SCc4cccnc4)nn23)cc1,–,"inconclusive: 6.31 µM [falling, single point]"
CC1Cc2ccccc2N1C(=O)COC(=O)c1ccc([N+](=O)[O-])o1 (stereo not given),inactive: -3.19%,–
COc1cccc(-c2noc(-c3ccc(Cl)nc3)n2)c1,–,"inconclusive: 0.282 µM [rising, full curve]"
